PMC5362516
Results are given in words; binding and its absence hold for the method and conditions named. In cells and extracts the contact can be indirect. Some entries that bind do so weakly or less than the wild type.

Target: T1, LATS1 (human (endogenous in SK-Hep-1)) (UniProt O95835)
T1 sequence: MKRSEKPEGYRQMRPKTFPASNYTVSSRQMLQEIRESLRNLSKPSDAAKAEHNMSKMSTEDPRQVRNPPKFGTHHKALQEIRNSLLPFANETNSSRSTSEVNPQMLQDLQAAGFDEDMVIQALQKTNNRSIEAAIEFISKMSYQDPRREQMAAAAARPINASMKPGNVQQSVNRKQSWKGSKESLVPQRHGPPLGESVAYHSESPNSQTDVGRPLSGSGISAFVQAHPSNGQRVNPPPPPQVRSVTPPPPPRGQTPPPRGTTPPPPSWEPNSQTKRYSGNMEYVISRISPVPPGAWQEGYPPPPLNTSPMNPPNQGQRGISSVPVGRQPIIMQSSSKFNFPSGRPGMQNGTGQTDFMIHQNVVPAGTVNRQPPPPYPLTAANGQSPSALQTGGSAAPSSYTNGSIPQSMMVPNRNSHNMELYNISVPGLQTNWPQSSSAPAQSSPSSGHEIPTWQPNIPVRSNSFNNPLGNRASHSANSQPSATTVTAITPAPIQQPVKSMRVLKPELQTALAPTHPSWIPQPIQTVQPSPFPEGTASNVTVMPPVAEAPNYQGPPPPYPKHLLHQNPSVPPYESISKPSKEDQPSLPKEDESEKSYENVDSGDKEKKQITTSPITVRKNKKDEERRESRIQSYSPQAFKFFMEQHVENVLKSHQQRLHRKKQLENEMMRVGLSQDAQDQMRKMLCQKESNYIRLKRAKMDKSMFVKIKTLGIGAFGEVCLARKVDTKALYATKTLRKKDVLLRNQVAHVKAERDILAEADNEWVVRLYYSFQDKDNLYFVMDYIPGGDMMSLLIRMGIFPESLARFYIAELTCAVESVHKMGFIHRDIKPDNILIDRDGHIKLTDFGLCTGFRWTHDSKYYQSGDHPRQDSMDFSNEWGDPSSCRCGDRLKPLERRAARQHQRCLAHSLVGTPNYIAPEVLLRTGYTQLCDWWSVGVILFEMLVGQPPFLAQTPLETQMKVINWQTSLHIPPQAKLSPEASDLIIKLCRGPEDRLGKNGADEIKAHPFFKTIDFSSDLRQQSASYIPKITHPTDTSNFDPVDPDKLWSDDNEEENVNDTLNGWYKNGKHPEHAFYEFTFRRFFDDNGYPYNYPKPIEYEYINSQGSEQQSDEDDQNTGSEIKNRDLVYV
Test: co-IP; SK-Hep-1 cells with TNFAIP8 overexpression; antibodies on magnetic beads (Bio-Rad SureBeads) incubated with the target protein, eluate analysed by western blot; done in both directions

binding: binds
B1: TNFAIP8 (protein, UniProt O95379 1-198)
chain: MHSEAEESKEVATDVFNSKNLAVQAQKKILGKMVSKSIATTLIDDTSSEVLDELYRVTREYTQNKKEAEKIIKNLIKTVIKLAILYRNNQFNQDELALMEKFKKKVHQLAMTVVSFHQVDYTFDRNVLSRLLNECREMLHQIIQRHLTAKSHGRVNNVFDHFSDCEFLAALYNPFGNFKPHLQKLCDGINKMLDEENI
